Reference: publication PMC7819943, “Rice protein-binding microarrays: a tool to detect cis-acting elements near promoter regions in rice”
This is one part of the list.

Each sequence was assayed against T1, OsSMF1 (Oryza sativa, UniProt Q6ZLB0 1-436) (assay: protein-binding microarray (RPBM); PBS, 2% BSA, 51.3 ng/ul salmon testes DNA, 50 uM zinc acetate, 200 nM TF, 25 C, 1 h; high values mean tight binding). Details: protein: recombinant; tags: N-terminal polyhistidine and DsRed monomer fusion (pET32a); chain copies: 2; label: CyDye5-dUTP incorporated in the synthesized complementary strand; 3' TTTTT single-stranded linker to array surface; dsDNA, one strand shown.
T1 sequence: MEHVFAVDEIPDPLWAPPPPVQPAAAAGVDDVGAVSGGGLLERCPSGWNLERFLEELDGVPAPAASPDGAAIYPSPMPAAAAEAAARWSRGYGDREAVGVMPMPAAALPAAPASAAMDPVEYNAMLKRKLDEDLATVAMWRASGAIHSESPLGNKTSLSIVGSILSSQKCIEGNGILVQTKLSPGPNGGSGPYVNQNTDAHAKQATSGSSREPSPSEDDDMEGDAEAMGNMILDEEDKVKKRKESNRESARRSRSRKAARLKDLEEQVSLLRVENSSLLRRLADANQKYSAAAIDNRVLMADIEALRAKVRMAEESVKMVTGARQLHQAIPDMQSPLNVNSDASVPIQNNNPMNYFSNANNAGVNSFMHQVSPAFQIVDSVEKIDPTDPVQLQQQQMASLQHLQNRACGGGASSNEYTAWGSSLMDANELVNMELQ
Procedure, shortened: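 Ni–NTA purification followed expression in E. coli BL21-CodonPlus of transcription factors fused N-terminally to a polyhistidine tag and DsRed. At 200 nM in PBS with 2% BSA, salmon testes DNA and 50 µM zinc acetate, the protein was incubated for 1 h at 25 °C with a custom Agilent array that had been primer-extended with Cy5-dUTP and blocked with 2% BSA. After washing, the array was read on an Axon 4000B scanner. The binding signal is per-feature fluorescence intensity in arbitrary units.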

Sequence	binding signal
ATCGCACGTTGACTCAGCCGCCACATCGGATAAATCGGGTCGGAGTCACCTAGTGCAG	15700 fluorescence intensity (a.u.)
GCGCACGGTGCCACGACGGCAGCCCAAGACCTGAGTGCCCCGGAGTCACCTAGTGCAG	5710 fluorescence intensity (a.u.)
GAGATTTGTTTGATGTATCAGGGTGTCACGTTGTCATGTTCGGAGTCACCTAGTGCAG	4970 fluorescence intensity (a.u.)
TCTCTGATTCTTTCTTGCTGACAAACACAATCCATCAAAGCGGAGTCACCTAGTGCAG	3520 fluorescence intensity (a.u.)
CCCTCGCCCAGACGCCACCGCCGCAACGCGTTGCTGCGTGCGGAGTCACCTAGTGCAG	3350 fluorescence intensity (a.u.)
TTCGTCCCCACGTGGTTTTCTGCCCGACTACTCCTACAGCCGGAGTCACCTAGTGCAG	4490 fluorescence intensity (a.u.)
ACATCCTACTCATGACACACTCATGCATGCCACCTCATCCCGGAGTCACCTAGTGCAG	10800 fluorescence intensity (a.u.)
AACAAAAGGGAAGGAGTAGGCCGGAAACGTCCTACGGAAACGGAGTCACCTAGTGCAG	35400 fluorescence intensity (a.u.)
CGCTAATCGCGGTGTTAATCCGGCACTAATCGCAATCGCACGGAGTCACCTAGTGCAG	3250 fluorescence intensity (a.u.)
TCAAATCAAATTGCCACGTAAGCGCCACGTCACTGCCACACGGAGTCACCTAGTGCAG	35200 fluorescence intensity (a.u.)
ACCCGTCGACGTACCTTAGATCACACCCCTCATCATCACTCGGAGTCACCTAGTGCAG	3330 fluorescence intensity (a.u.)
TCAGCTGGTATTAACACACGATGTGTCTCTTTTACTGCCACGGAGTCACCTAGTGCAG	3830 fluorescence intensity (a.u.)
GCTGGCCCATCTCCTTGCCCACCCATGGGCCTGAAAGCCGCGGAGTCACCTAGTGCAG	49900 fluorescence intensity (a.u.)
CGATTTTATCATTTATCATTCATCAGTCACACGACCTTCACGGAGTCACCTAGTGCAG	3480 fluorescence intensity (a.u.)
ATCTCAAACCGGGCATATGAACCCTATGACTAATGTGATTCGGAGTCACCTAGTGCAG	3550 fluorescence intensity (a.u.)
CAAACACAGCAGATAGATAATACAGGGCCCGCGACGTGGGCGGAGTCACCTAGTGCAG	3180 fluorescence intensity (a.u.)
CGCCAATAGCTCGCCGCCGTCGAAACCCAAAATCTTCTCTCGGAGTCACCTAGTGCAG	3420 fluorescence intensity (a.u.)
GAGTGTAGGACTTCAGTCCTATGTAATTTTCTTCCACGAGCGGAGTCACCTAGTGCAG	3220 fluorescence intensity (a.u.)
CCCAACGCCGGGCAGGACCCCAGCTACGTGGCAGCGCTGGCGGAGTCACCTAGTGCAG	8800 fluorescence intensity (a.u.)
TCGGCTTAAATCCACATAGCCACGAGAGATGGTCCGCTGTCGGAGTCACCTAGTGCAG	3140 fluorescence intensity (a.u.)
AACGTGCCGAGGTGGCAGCCCAAGCACGACATGGCTGTTACGGAGTCACCTAGTGCAG	3360 fluorescence intensity (a.u.)

Sequence	binding signal
GCTGTATCAAAAGAAGTCGTACGTGGACATATGTGTGAGCCGGAGTCACCTAGTGCAG	5260 fluorescence intensity (a.u.)
TTTCTTCGACACGTCGTCTAGTGCTGCTAGCTGTGACCTCCGGAGTCACCTAGTGCAG	4540 fluorescence intensity (a.u.)
TTAACTCGTACAGTACAGGGTAATGAACTGTACCGGCGTGCGGAGTCACCTAGTGCAG	25300 fluorescence intensity (a.u.)
TTCAAATGCCACCTAAACGCCACGTCAACCCCATAGACTACGGAGTCACCTAGTGCAG	15600 fluorescence intensity (a.u.)
TAAGCCTTAAGGTCGTCGCACATGCGTGATTTATTTAACTCGGAGTCACCTAGTGCAG	4220 fluorescence intensity (a.u.)
TCTTATCTGCATCCAACTGTACTCCAGCATGATCCACAACCGGAGTCACCTAGTGCAG	3420 fluorescence intensity (a.u.)
CTTGATAATTAGTGGATGATGATGTGTCATCTTTACATGTCGGAGTCACCTAGTGCAG	23800 fluorescence intensity (a.u.)
CCGAGTCTTGCTTGCCAAGCGAGTGCGTGTAGAGTGGTTTCGGAGTCACCTAGTGCAG	3360 fluorescence intensity (a.u.)
ACAGGCTGAGTTGGCTTGTGGTGCTTCCCAGCCTTCACTGCGGAGTCACCTAGTGCAG	3320 fluorescence intensity (a.u.)
TTTCTAGACAATTTGTCTCTTGCGGTGACACCTAGTTAGTCGGAGTCACCTAGTGCAG	4880 fluorescence intensity (a.u.)
GCCCAGCAAATGCCGTACGTGGCCGCATTGCCGGCGGGCGCGGAGTCACCTAGTGCAG	3760 fluorescence intensity (a.u.)
CCGCGTTCGTGCCGACGCGTGTGAAACGGCCGAGGTCGTGCGGAGTCACCTAGTGCAG	3680 fluorescence intensity (a.u.)
CTGCAGCGAGTGCATCTTCGGGCATGGCCCCATGTCCATCCGGAGTCACCTAGTGCAG	12300 fluorescence intensity (a.u.)
AAGATTGAAGGCAACCAAACCAACAAGGATGGATGCTTCTCGGAGTCACCTAGTGCAG	37800 fluorescence intensity (a.u.)
ACGAAAACGACGTAAGCTGTAGTCAGAGTTTCAGACTATGCGGAGTCACCTAGTGCAG	3270 fluorescence intensity (a.u.)
TGTTTGTATAATTTTGAGTTATCAACAGTCGCGATGGAGACGGAGTCACCTAGTGCAG	24900 fluorescence intensity (a.u.)
ATCCATCCGGCGAAACTTCCACTGATGAATCGGACTTCCCCGGAGTCACCTAGTGCAG	3240 fluorescence intensity (a.u.)
CGCAGCATCCCCGCCTGCTGTCACCGCCTAGCTACGTAAGCGGAGTCACCTAGTGCAG	3680 fluorescence intensity (a.u.)
TCTCATCCTAATTAAATTTACCATTTAACACTATGGGTTACGGAGTCACCTAGTGCAG	14200 fluorescence intensity (a.u.)
GTTATAGGAGGTTCAATGGCTGTATGCCACGTCGGCAAAACGGAGTCACCTAGTGCAG	14700 fluorescence intensity (a.u.)
CGGCCGCCCCGACGAGCTCGCCTCCTCCCTCGTGGCGCTCCGGAGTCACCTAGTGCAG	3580 fluorescence intensity (a.u.)

Sequence	binding signal
CACACACACACACACATGGCACATTGCTCATTGATCTTAGCGGAGTCACCTAGTGCAG	4280 fluorescence intensity (a.u.)
ACCTAGGCATCTAGCGCATCAAGCTGACACAGGAGTCCACCGGAGTCACCTAGTGCAG	3300 fluorescence intensity (a.u.)
GTTGAGTGTTGAGCTCGGTCGTCCTGTTCTTGACTTCTCGCGGAGTCACCTAGTGCAG	3750 fluorescence intensity (a.u.)
ACTTGATCATACGAGTCAGTGTAGGATTTGATTGGTTGCACGGAGTCACCTAGTGCAG	3650 fluorescence intensity (a.u.)
ATCCTACCCTTCGATCTGATTCATTCGCCGCCGCCGAATCCGGAGTCACCTAGTGCAG	3510 fluorescence intensity (a.u.)
GTTAAACGCGCTGCCACGCGGCTTACACGCGTATCAAGAACGGAGTCACCTAGTGCAG	3700 fluorescence intensity (a.u.)
ACCTGAAATCCCGCTTTGTCATTGGGTACGTTGTGTCATCCGGAGTCACCTAGTGCAG	3830 fluorescence intensity (a.u.)
GTCGGCGAACGGGCGGCCGCTCCGCGTCGCCGTCCCGGTGCGGAGTCACCTAGTGCAG	5220 fluorescence intensity (a.u.)
TGGATCTGGTAGTTACGTAATCAGAGTGGACACGCCGCGTCGGAGTCACCTAGTGCAG	4140 fluorescence intensity (a.u.)
CGCTGAGATCACTAGCCAGAGCCTCACGTGTCCCGAACTTCGGAGTCACCTAGTGCAG	4300 fluorescence intensity (a.u.)
TACAAATGAATTTGGATCACAACTCAACACTCTAAGCCCTCGGAGTCACCTAGTGCAG	24400 fluorescence intensity (a.u.)
TTCGGCCTCCACATCATCATCTCCTCTCCTCTCTCGTCTCCGGAGTCACCTAGTGCAG	19100 fluorescence intensity (a.u.)
ATCTTTGATTTGTCCTAAATTTGTGATGGGGATGTCACCGCGGAGTCACCTAGTGCAG	6560 fluorescence intensity (a.u.)
GGGGTGGGCGGCCGCGGGAGCTCCACGGCATCGATCGCCACGGAGTCACCTAGTGCAG	4180 fluorescence intensity (a.u.)
TGCAGGGACGATCTGATGGACAGCTCGGATTCGTCCCACACGGAGTCACCTAGTGCAG	3190 fluorescence intensity (a.u.)
TCAGGGGTGGTGGTTCGTTGAAGTCGGCCGATGGAGGGGCCGGAGTCACCTAGTGCAG	3200 fluorescence intensity (a.u.)
TTATCTCCTCATCCATTTTCATCCTCGTCTACATTCACTGCGGAGTCACCTAGTGCAG	24600 fluorescence intensity (a.u.)
TGGTAGACGACGTGGCTGTTGACTGTGAGACGTCTATGGTCGGAGTCACCTAGTGCAG	5180 fluorescence intensity (a.u.)
CCAATCCCGGTGGCGCCAGGCGATTCGTGGCCACGCCAGACGGAGTCACCTAGTGCAG	3590 fluorescence intensity (a.u.)
CGCTGCATCGACGTGGAGCTGCAGTTGTGTTGTCCTCTCGCGGAGTCACCTAGTGCAG	8820 fluorescence intensity (a.u.)
GTCAGTCACCGCCCTGTGGGGCCCACCCACCCGCGCCGTCCGGAGTCACCTAGTGCAG	9640 fluorescence intensity (a.u.)

Eight entries from above, reformatted:
Sequence,binding signal
CACACACACACACACATGGCACATTGCTCATTGATCTTAGCGGAGTCACCTAGTGCAG,4280 fluorescence intensity (a.u.)
GTTGAGTGTTGAGCTCGGTCGTCCTGTTCTTGACTTCTCGCGGAGTCACCTAGTGCAG,3750 fluorescence intensity (a.u.)
ACCTGAAATCCCGCTTTGTCATTGGGTACGTTGTGTCATCCGGAGTCACCTAGTGCAG,3830 fluorescence intensity (a.u.)
TGGATCTGGTAGTTACGTAATCAGAGTGGACACGCCGCGTCGGAGTCACCTAGTGCAG,4140 fluorescence intensity (a.u.)
CGCTGAGATCACTAGCCAGAGCCTCACGTGTCCCGAACTTCGGAGTCACCTAGTGCAG,4300 fluorescence intensity (a.u.)
TTCGGCCTCCACATCATCATCTCCTCTCCTCTCTCGTCTCCGGAGTCACCTAGTGCAG,19100 fluorescence intensity (a.u.)
ATCTTTGATTTGTCCTAAATTTGTGATGGGGATGTCACCGCGGAGTCACCTAGTGCAG,6560 fluorescence intensity (a.u.)
CCAATCCCGGTGGCGCCAGGCGATTCGTGGCCACGCCAGACGGAGTCACCTAGTGCAG,3590 fluorescence intensity (a.u.)

Further results follow:

Sequence	binding signal
TTGAGAAATTTTGTCATGACGCAGAATACCACTACTCAACCGGAGTCACCTAGTGCAG	3630 fluorescence intensity (a.u.)
TTTTCTGTTGTGTGCAGAAAAGAATACGTGGTGCTTAATTCGGAGTCACCTAGTGCAG	3140 fluorescence intensity (a.u.)
TGTTGGTTGCCACACGTATATTTGGGCCCCTTATCCATCCCGGAGTCACCTAGTGCAG	4300 fluorescence intensity (a.u.)
AAGCTGACGGTGAGCCCGGCGGTGACGCAGGCGCAGCAGCCGGAGTCACCTAGTGCAG	4280 fluorescence intensity (a.u.)
GCTTATGCAGTCAAGGAATCTCTCGACGTAACTGCAGCACCGGAGTCACCTAGTGCAG	3390 fluorescence intensity (a.u.)
ATACAGCTTGATTCCGTCGTCACAGGGCTCACACACACCTCGGAGTCACCTAGTGCAG	3370 fluorescence intensity (a.u.)
TTCATCAAAAGCATAGACGGGGAATTTGTCATGATAATTGCGGAGTCACCTAGTGCAG	18300 fluorescence intensity (a.u.)
TTTCGTAATGCTGCTTTTGTCAGGGTTGTTCTGAAACTTGCGGAGTCACCTAGTGCAG	15400 fluorescence intensity (a.u.)
CGGAAGAAGGCCGCTGCTGCTGCAGCGGCGGCGGCCAAGACGGAGTCACCTAGTGCAG	3210 fluorescence intensity (a.u.)
GCGCCCACTGCTAACTCCGACCGCCATGACACCTCTGGTTCGGAGTCACCTAGTGCAG	3630 fluorescence intensity (a.u.)
ACCGCCACGGCGCCACCCATGAAGTTCGCCTCACAGTCACCGGAGTCACCTAGTGCAG	3280 fluorescence intensity (a.u.)
TCGTCTCCTCACCCCGCTGCTTCTCGACACCGCCACCGCACGGAGTCACCTAGTGCAG	3320 fluorescence intensity (a.u.)
CATGCAACATACCCATCCCATCGTCATCCTCATCATCATCCGGAGTCACCTAGTGCAG	3660 fluorescence intensity (a.u.)
GTGGGCCATACGTGTGGCTCGTAGTCTCTTACGTTCACTGCGGAGTCACCTAGTGCAG	3650 fluorescence intensity (a.u.)
GGGCAACTTGATACTGTGAAACATGTCATCTACGTAAACGCGGAGTCACCTAGTGCAG	4810 fluorescence intensity (a.u.)
ACGCGCACCAGTGCGCCTGACTCGACCAGCGCGGCGAGCGCGGAGTCACCTAGTGCAG	4960 fluorescence intensity (a.u.)
CACCCAAGCCAAGCCCACGACCCGCACCGCAACACGCACACGGAGTCACCTAGTGCAG	24200 fluorescence intensity (a.u.)
GTGTGGCATGCCACATCAACGCCACGTAGAATTCTGAAAGCGGAGTCACCTAGTGCAG	5240 fluorescence intensity (a.u.)
AGATTAAAGAGGTTTCAAATAAATGAAATGAGTCATACGCCGGAGTCACCTAGTGCAG	8130 fluorescence intensity (a.u.)
GGCACAGTGGCATCTCTAGTACTCCGTACTACTGCTACTACGGAGTCACCTAGTGCAG	20300 fluorescence intensity (a.u.)
AACTAGATTACATCACTTGTCGGGTGATACTTTACATGTTCGGAGTCACCTAGTGCAG	4100 fluorescence intensity (a.u.)
